From patent US7632833B2, “Mitotic kinesin inhibitors” (Merck & Co., Inc., priority 2004, dated 2009)
Some entries share one result that the patent states for a list of compounds. At least one compound was matched to its structure with a doubt left.

Target: T1, human poly-histidine tagged KSP motor domain (KSP(367H)) (Homo sapiens, UniProt P52732)
T1 construct: were used to amplify the motor domain and the neck linker region; made in house; host or cells: E. coli BL21 (DE3), vector pRSETa
T1 sequence (P52732 18-359 limits assumed): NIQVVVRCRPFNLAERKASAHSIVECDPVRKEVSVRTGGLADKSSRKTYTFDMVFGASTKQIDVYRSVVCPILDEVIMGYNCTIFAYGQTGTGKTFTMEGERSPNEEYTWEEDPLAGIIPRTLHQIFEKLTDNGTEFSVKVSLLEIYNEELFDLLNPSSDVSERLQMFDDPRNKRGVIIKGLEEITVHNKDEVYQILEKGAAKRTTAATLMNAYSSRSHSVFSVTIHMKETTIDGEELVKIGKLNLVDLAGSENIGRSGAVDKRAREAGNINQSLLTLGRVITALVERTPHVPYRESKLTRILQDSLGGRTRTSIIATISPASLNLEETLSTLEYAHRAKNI
Assay: Kinesin ATPase In Vitro Assay
Format: biochemical
Settings: (3R,4R) enantiomeric form tested; kinesin motor domain with microtubules, 1 mM ATP, 23° C., free phosphate by quinaldine red/ammonium molybdate
Experimental: I. Kinesin ATPase In Vitro Assay
The N-terminal primer 5′-[…] (SEQ. ID. NO.: 1) and the C-terminal primer 5′-[…] […] (SEQ. ID. NO.: 2)
were used to amplify the motor domain and the neck linker region. The PCR products were digested with AseI and XhoI, ligated into the NdeI/XhoI digestion product of pRSETa (Invitrogen) and transformed into E. coli BL21 (DE3).
Cells were grown at 37° C. to an OD600 of 0.5. After cooling the culture to room temperature expression of KSP was induced with 100 μM IPTG and incubation was continued overnight. Cells were pelleted by centrifugation and washed once with ice-cold PBS. Pellets were flash-frozen and stored −80° C.
Protein Purification: Cell pellets were thawed on ice and resuspended in lysis buffer (50 mM K-HEPES, pH 8.0, 250 mM KCl, 0.1% Tween, 10 mM imidazole, 0.5 mM Mg-ATP, 1 mM PMSF, 2 mM benzimidine, 1× complete protease inhibitor cocktail (Roche)). Cell suspensions were incubated with 1 mg/ml lysozyme and 5 mM β-mercaptoethanol on ice for 10 minutes, followed by sonication (3×30 sec). […]
The kinesin motor domain is incubated with microtubules, 1 mM ATP (1:1 MgCl2: Na-ATP), and compound at 23° C. in buffer containing 80 mM K-HEPES (pH 7.0), […], 1 mM DTT, 1 mM MgCl2, and 50 mM KCl. […] The reaction is incubated for 10 minutes at 23° C., and the absorbance of the phospho-molybdate complex is measured at 540 nm.

In the case of `CC(=O)C1=NN2c3cc(F)ccc3OC[C@H]2[C@@]1(CCCN)c1ccccc1` [Compound 4-39, 1-[(3R,4R)-3-(3-aminopropyl)-8-fluoro-3-phenyl-3a,4-dihydro-3H-pyrazolo[5,1-c][1,4]benzoxazin-2-yl]ethanone], the IC50 is reported as ≤ 30 µM.
